PubChem BioAssay AID504808 – Drosophila RNAi Screening Center, 2011
In all, the deposit lists about 21,000 reagents; shown is a random part of those that have a named target and a result. Over the whole deposit, 18 (0.084%) were called active. 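Raw counts without plate normalisation, one of two replicates; the ratio scores behind the calls were not deposited.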 A number with no mark means an inactive call. Names joined by + are all predicted targets of the reagent. Not stated in the record: the amount of reagent, the time to read-out.

Screen: 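Fly genes required to hold E2F transcription in check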 (primary screen)
System: Drosophila S2 cells
Reagents: long dsRNA against Drosophila genes
Read-out: 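Dual luciferase plate measurements; E2F-specific signal taken as firefly over Renilla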
Scale: E2F firefly: higher = more E2F reporter activity; Renilla normaliser: higher = more normaliser reporter signal
Rule for the call: 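a knock-down counted as active when the firefly/Renilla E2F signal rose above 50%, a threshold chosen arbitrarily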

| gene knocked down | amplicon | E2F firefly, rep 1 | Renilla normaliser, rep 1 |
| --- | --- | --- | --- |
| Qsox1 (Quiescin sulfhydryl oxidase 1) | DRSC06878 | 1.11e5 | 5090 |
| prod (proliferation disrupter) | DRSC07667 | 83146 | 3242 |
| CG33523 | DRSC09814 | 83484 | 3275 |
| CG6428 | DRSC18402 | 1.10e5 | 5763 |
| CG33252 | DRSC19162 | 88820 | 2422 |
| Kal1 (Kallmann syndrome 1) | DRSC15983 | 71281 | 4163 |
| ttm2 (tiny tim 2) | DRSC08268 | 1.01e5 | 4442 |
| Ctr9 | DRSC08562 | 64824 | 3921 |
| CG17568 | DRSC02628 | 86405 | 4298 |
| TwdlY (TweedleY) | DRSC19153 | 83662 | 2795 |
| Mkk4 (MAP kinase kinase 4) | DRSC16739 | 1.44e5 | 6956 |
| Gabat (gamma-aminobutyric acid transaminase) | DRSC10846 | 1.31e5 | 7207 |
| PHDP (Putative homeodomain protein) | DRSC04635 | 1.00e5 | 4185 |
| CG8032 | DRSC16365 | 1.46e5 | 7268 |
| Taf10b (TBP-associated factor 10b) | DRSC00792 | 1.45e5 | 5847 |
| Ip259 (Intronic Protein 259) | DRSC03352 | 68707 | 3770 |
| me31B (maternal expression at 31B) | DRSC03569 | 68678 | 3585 |
| xmas | DRSC21306 | 1.30e5 | 6266 |
| CG11269 | DRSC04094 | 1.11e5 | 4349 |
| Ctf4 (Chromosome transmission fidelity 4) | DRSC06380 | 156 | 43 |
| SerRS-m (Seryl-tRNA synthetase, mitochondrial) | DRSC14096 | 1.16e5 | 6726 |
| CecA2 (Cecropin A2) | DRSC16604 | 1.17e5 | 6171 |
| CG4972 | DRSC02798 | 1.55e5 | 5235 |
| Hcf (Host cell factor) | DRSC17143 | 1813 | 1040 |
| chic (chickadee) | DRSC03507 | 1.48e5 | 5487 |
| CG42372 + CG30100 | DRSC05602 | 1.58e5 | 5555 |
| slow (slowdown) | DRSC08589 | 68052 | 3579 |
| slow (slowdown) | DRSC08590 | 83337 | 3104 |
| CheB53b (Chemosensory protein B 53b) | DRSC05613 | 1.76e5 | 5587 |
| EMC2B + EMC2A | DRSC15241 | 1.22e5 | 7555 |
| CG3734 | DRSC15509 | 1.39e5 | 6273 |
| Cftr (CF transmembrane conductance regulator) | DRSC15872 | 81205 | 3572 |
| side-VIII (sidestep VIII) | DRSC05880 | 1.29e5 | 5163 |
| side-VIII (sidestep VIII) | DRSC05883 | 1.15e5 | 4318 |
| side-VIII (sidestep VIII) | DRSC06157 | 1.56e5 | 4990 |
| upSET | DRSC11051 | 63024 | 3264 |
| RanBPM (Ran-binding protein M) | DRSC06079 | 3006 | 263 |
| JhI-26 (Juvenile hormone-inducible protein 26) | DRSC06851 | 69207 | 3456 |
| CG17169 | DRSC20905 | 1.41e5 | 7323 |
| CG3552 | DRSC10370 | 1.30e5 | 6904 |
| CG33639 | DRSC19966 | 1.57e5 | 6883 |
| Paf-AHalpha (Platelet-activating factor acetylhydrolase alpha) | DRSC20267 | 1.58e5 | 6187 |
| CG5641 | DRSC15852 | 80782 | 3666 |
| Taf8 (TBP-associated factor 8) | DRSC20363 | 1.16e5 | 5578 |
| feo (fascetto) | DRSC19398 | 61219 | 3258 |
| RpL15 (Ribosomal protein L15) | DRSC20963 | 91469 | 5570 |
| CG11396 | DRSC11654 | 1.31e5 | 5397 |
| Dnai2 (dynein, axonemal, intermediate chain 2) | DRSC10575 | 1.07e5 | 3352 |
| CG3690 | DRSC18170 | 1.14e5 | 5967 |
| CG3690 | DRSC18641 | 1.13e5 | 6670 |
| Uros1 (Uroporphyrinogen III synthase 1) | DRSC18191 | 7296 | 744 |
| Cth (Cystathionine gamma-lyase) | DRSC07422 | 68806 | 3431 |
| CG12862 | DRSC06202 | 96882 | 4276 |
| Tsp96F (Tetraspanin 96F) | DRSC14147 | 1791 | 956 |
| Lcp9 (Larval cuticle protein 9) | DRSC04287 | 99808 | 3925 |
| tous (testes of unusual size) | DRSC04464 | 82512 | 3363 |
| Pgant1 (Polypeptide N-Acetylgalactosaminyltransferase 1) | DRSC07095 | 94060 | 3996 |
| CG31817 | DRSC01537 | 1.31e5 | 5424 |
| CG31817 | DRSC01538 | 1.35e5 | 5542 |
| CAH14 (Carbonic anhydrase 14) | DRSC04234 | 86912 | 3729 |
| RpL13A (Ribosomal protein L13A) | DRSC12265 | 44505 | 3210 |

Continued, starting with the last 7 of the part before.
| gene knocked down | amplicon | E2F firefly, rep 1 | Renilla normaliser, rep 1 |
| --- | --- | --- | --- |
| Lcp9 (Larval cuticle protein 9) | DRSC04287 | 99808 | 3925 |
| tous (testes of unusual size) | DRSC04464 | 82512 | 3363 |
| Pgant1 (Polypeptide N-Acetylgalactosaminyltransferase 1) | DRSC07095 | 94060 | 3996 |
| CG31817 | DRSC01537 | 1.31e5 | 5424 |
| CG31817 | DRSC01538 | 1.35e5 | 5542 |
| CAH14 (Carbonic anhydrase 14) | DRSC04234 | 86912 | 3729 |
| RpL13A (Ribosomal protein L13A) | DRSC12265 | 44505 | 3210 |
| CG33255 (retired record) + hpRNA:CR32205 + hpRNA:CR32207 | DRSC09617 | 87413 | 4037 |
| wake (wide awake) | DRSC16148 | 1.05e5 | 5450 |
| wake (wide awake) | DRSC16149 | 1.10e5 | 5548 |
| CG4730 | DRSC15633 | 1.05e5 | 5666 |
| RpL34b (Ribosomal protein L34b) | DRSC16475 | 1.37e5 | 7157 |
| CG9806 | DRSC18444 | 1.36e5 | 5927 |
| CG6503 | DRSC16056 | 1.07e5 | 5502 |
| CG32409 | DRSC08780 | 1.39e5 | 4125 |
| Hr51 (Hormone receptor 51) | DRSC06627 | 92206 | 3556 |
| CG3557 | DRSC00614 | 86514 | 3579 |
| twin | DRSC15259 | 75085 | 3555 |
| twin | DRSC15831 | 1.28e5 | 6499 |
| CG6283 | DRSC16009 | 1.02e5 | 5603 |
| Apc2 (Adenomatous polyposis coli 2) | DRSC14115 | 81617 | 5520 |
| Vmat (Vesicular monoamine transporter) | DRSC06961 | 2862 | 203 |
| Vmat (Vesicular monoamine transporter) | DRSC06962 | 1.03e5 | 4192 |
| CG4666 | DRSC18379 | 1.05e5 | 6178 |
| CG17187 | DRSC15181 | 1.17e5 | 5876 |
| CG42337 | DRSC11686 | 1.16e5 | 6076 |
| CG42337 | DRSC11687 | 83241 | 5357 |
| CG34054 | DRSC05277 | 1.25e5 | 5470 |
| CG15450 | DRSC20522 | 1.30e5 | 6805 |
| CG11158 | DRSC19389 | 1.16e5 | 5537 |
| APP-BP1 (beta-Amyloid precursor protein binding protein 1) | DRSC10920 | 1.17e5 | 6545 |
| CG13654 | DRSC14654 | 1.04e5 | 5851 |
| Atx-1 (Ataxin 1) | DRSC18365 | 1.08e5 | 5092 |
| Ilp4 (Insulin-like peptide 4) | DRSC10701 | 1.16e5 | 6287 |
| Mtr3 | DRSC10953 | 1.08e5 | 7111 |
| VhaM9.7-a (Vacuolar H[+] ATPase M9.7 subunit a) | DRSC08289 | 1.10e5 | 3989 |
| Polr2M (RNA polymerase II subunit M) | DRSC15513 | 1.45e5 | 8076 |
| CG33203 | DRSC14874 | 1.40e5 | 6368 |
| CG33203 | DRSC14876 | 1.16e5 | 6426 |
| CG33203 | DRSC14877 | 1.10e5 | 5801 |
| CG17378 | DRSC02616 | 1.41e5 | 5061 |
| Hydr1 (alpha/beta hydrolase 1) | DRSC07063 | 58399 | 3989 |
| eIF2alpha (eukaryotic translation initiation factor 2 subunit alpha) | DRSC20327 | 1.62e5 | 7331 |
| dare (defective in the avoidance of repellents) | DRSC07602 | 3128 | 205 |
| CG42399 | DRSC00322 | 1.46e5 | 5119 |
| CG42399 | DRSC00661 | 1.48e5 | 5697 |
| Rab5 | DRSC00777 | 87353 | 4370 |
| Oseg1 (Outer segment 1) | DRSC10776 | 73343 | 3550 |
| CG8539 | DRSC10988 | 71198 | 3396 |
| Sema2a (Semaphorin 2a) | DRSC07551 | 74622 | 4204 |
| TTLL15 (Tubulin tyrosine ligase-like 15) | DRSC15543 | 1.22e5 | 5770 |
| Grip91 (Gamma-tubulin ring protein 91) | DRSC20249 | 7670 | 740 |
| CG34214 | DRSC04490 | 85957 | 3539 |
